Measured values taken from patent US20050070699A1.
No constants are given. Whether binding was seen depends on the method and setting. Some entries that bind do so weakly or less than the wild type.

T1: cytoplasmic domain of Zmax1 (LRP5), yeast two hybrid bait (Homo sapiens (Human)) (UniProt O75197)
T1 sequence: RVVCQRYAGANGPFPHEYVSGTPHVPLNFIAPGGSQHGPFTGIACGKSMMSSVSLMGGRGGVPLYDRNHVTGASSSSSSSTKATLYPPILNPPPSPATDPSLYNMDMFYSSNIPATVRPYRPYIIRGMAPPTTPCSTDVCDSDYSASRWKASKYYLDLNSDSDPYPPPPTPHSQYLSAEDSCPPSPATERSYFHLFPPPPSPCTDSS

T2: LRP5 ligand binding domain bait (human) (UniProt O75197)
T2 sequence: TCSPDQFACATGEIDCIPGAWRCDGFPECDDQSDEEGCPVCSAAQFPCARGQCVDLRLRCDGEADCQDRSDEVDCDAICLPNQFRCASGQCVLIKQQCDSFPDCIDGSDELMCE


Key:
[1] = biological target: T1, cytoplasmic domain of Zmax1 (LRP5), yeast two hybrid bait (Homo sapiens (Human)); assay: yeast two hybrid, three prey libraries
[2] = biological target: T1, cytoplasmic domain of Zmax1 (LRP5), yeast two hybrid bait (Homo sapiens (Human)); assay: yeast two hybrid
[3] = biological target: T1, cytoplasmic domain of Zmax1 (LRP5), yeast two hybrid bait (Homo sapiens (Human)); assay: yeast two hybrid; bait: cytoplasmic domain of Zmax1 (LRP5); prey cDNA libraries (brain, HeLa, TE85)
[4] = biological target: T2, LRP5 ligand binding domain bait (human); assay: yeast two hybrid minimum interaction domain mapping with LRP5 LBD baits
[5] = biological target: T2, LRP5 ligand binding domain bait (human); assay: yeast two hybrid

Molecule	binding [1]	binding [2]	binding [3]	binding [4]	binding [5]
TRIO (GTPase) (from UniProt O75962 60-3097)		binds	binds		
human Dkk-1 (ligand, UniProt O94907 32-266, looked up) TLNSVLNSNAIKNLPPPLGGAAGHPGSAVSAAPGILYPGGNKYQTIDNYQPYPCAEDEECGTDEYCASPTRGGDAGVQICLACRKRRKRCMRHAMCCPGNYCKNGICVSSDQNHFRGEIEETITESFGNDHSTLDGYSRRTTLSSKMYHTKGQEGSVCLRSSDCASGLCCARHFWSKICKPVLKEGQVCTKHRRKGSHGLEIFQRCYCGEGLSCRIQKDHHQASNSSRLHTCQRH				binds	binds

Continued, values first:

binding [1]	binding [2]	binding [3]	binding [4]	binding [5]	Molecule
binds	binds	binds			Axin (from UniProt O15169 1-862)
binds		binds			cytosolic thyroid hormone-binding protein (from UniProt P14618 2-531)
